Changes are numbered by the printed parent chain. Names and notes keep the numbering of the source. Results are given in words; binding and its absence hold for the method and conditions named. In cells and extracts the contact can be indirect. Some binding calls cover weakened binding; strength is not graded here. For some of these results: Where a sequence is shown, tags or fusion partners need not be part of it. Each block holds one molecule with its values, some of them ahead of it.
Experiments:
[1] = molecular target: T1, endogenous YOD1 (primary cardiomyocytes after Ang II stimulation) (rat (endogenous in neonatal rat primary cardiomyocytes, by the legend; the text says mouse cardiac tissue)) (UniProt Q32Q05); assay: co-IP; endogenous proteins, primary cardiomyocytes following Ang II stimulation (text: Ang II–induced mouse cardiac tissue); precipitated with anti-YOD1 antibody, IgG control; NP-40 lysis buffer, Protein A + G agarose, 4°C
T1 sequence: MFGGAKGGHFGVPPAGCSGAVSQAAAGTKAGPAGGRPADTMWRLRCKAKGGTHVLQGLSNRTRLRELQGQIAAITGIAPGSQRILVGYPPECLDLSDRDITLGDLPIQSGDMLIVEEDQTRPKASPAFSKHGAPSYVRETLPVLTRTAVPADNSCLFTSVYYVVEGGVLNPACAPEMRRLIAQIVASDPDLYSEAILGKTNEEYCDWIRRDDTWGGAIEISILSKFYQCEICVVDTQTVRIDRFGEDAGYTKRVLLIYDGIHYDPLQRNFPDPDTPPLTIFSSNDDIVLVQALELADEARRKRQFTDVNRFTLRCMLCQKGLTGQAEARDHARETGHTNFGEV

Chains of the proteins cited; added tags and fusions are not shown.
UniProt P42227: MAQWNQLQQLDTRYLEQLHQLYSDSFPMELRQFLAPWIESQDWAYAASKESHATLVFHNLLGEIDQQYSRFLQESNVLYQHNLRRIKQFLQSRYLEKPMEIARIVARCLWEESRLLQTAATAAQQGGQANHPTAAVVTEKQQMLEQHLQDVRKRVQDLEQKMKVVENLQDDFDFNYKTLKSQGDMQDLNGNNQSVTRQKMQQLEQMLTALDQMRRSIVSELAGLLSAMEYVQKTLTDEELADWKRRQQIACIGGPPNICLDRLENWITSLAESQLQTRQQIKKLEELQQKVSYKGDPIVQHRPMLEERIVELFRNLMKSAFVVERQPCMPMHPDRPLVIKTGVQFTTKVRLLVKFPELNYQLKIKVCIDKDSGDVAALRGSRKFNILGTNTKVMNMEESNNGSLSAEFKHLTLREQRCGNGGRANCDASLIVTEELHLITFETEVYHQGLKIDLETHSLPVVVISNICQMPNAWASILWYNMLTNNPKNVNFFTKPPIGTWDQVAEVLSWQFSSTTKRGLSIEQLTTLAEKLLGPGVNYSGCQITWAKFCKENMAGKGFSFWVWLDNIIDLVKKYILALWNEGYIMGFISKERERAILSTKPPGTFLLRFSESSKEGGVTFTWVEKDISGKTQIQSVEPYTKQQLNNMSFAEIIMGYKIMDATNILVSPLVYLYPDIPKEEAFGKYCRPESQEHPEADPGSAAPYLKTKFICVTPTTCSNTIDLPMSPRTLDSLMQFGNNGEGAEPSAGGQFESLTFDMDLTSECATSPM
UniProt P52631: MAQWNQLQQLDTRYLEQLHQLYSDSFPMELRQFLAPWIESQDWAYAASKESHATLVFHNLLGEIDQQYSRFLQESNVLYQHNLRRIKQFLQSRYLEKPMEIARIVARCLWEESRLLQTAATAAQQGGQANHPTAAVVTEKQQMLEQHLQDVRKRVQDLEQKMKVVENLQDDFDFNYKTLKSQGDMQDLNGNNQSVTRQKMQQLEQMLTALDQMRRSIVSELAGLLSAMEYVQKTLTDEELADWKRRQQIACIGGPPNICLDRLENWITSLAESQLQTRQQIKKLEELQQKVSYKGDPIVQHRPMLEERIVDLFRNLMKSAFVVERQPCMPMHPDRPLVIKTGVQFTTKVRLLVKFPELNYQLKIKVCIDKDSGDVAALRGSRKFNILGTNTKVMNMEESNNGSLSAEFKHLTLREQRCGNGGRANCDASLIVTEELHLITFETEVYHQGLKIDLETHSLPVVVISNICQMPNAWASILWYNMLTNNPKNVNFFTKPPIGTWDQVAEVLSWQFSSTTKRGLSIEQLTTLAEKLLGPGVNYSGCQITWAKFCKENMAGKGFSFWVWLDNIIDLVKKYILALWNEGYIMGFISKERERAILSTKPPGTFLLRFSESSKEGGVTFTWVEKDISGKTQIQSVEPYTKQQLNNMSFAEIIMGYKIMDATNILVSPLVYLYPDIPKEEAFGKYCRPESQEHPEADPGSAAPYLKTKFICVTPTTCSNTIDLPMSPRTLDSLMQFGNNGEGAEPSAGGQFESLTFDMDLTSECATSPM

[2] = molecular target: His-STAT3, expressed in NIH 3T3 cells (UniProt P42227); assay: co-IP; NIH 3T3 cells cotransfected with Flag-YOD1 and His-STAT3 plasmids (wild type and domain deletion constructs); precipitated with anti-His or anti-Flag antibody; NP-40 lysis buffer, Protein A + G agarose, 4°C
[3] = molecular target: His-STAT3, expressed in NIH 3T3 cells (UniProt P42227); assay: co-IP; fig. S12 (legend not shown): YOD1 active-site mutant plasmids with STAT3; method taken from the only binding assay of the methods

B1: Flag-YOD1, expressed in NIH 3T3 cells (enzyme, UniProt Q8CB27 1-343)
chain: MFGGAKGGHFGVPPAGYSGAVPQSEAGTKAGPAGGRPADTMWRVRCKAKGGTHLLQGLSSRTRLRELQGQIAAITGIAPGSQRILVGYPPECLDLSDRDITLGDLPIQSGDMLIVEEDQTRPKASPAFSKYGAPSYVREALPVLTRTAVPADNSCLFTSVYYVVEGGVLNPACAPEMRRLIAQIVASDPVLYSEAILGKTNEDYCDWIRRDDTWGGAIEISILSKFYQCEICVVDTQTVRIDRFGEDAGYTKRVLLIYDGIHYDPLQRNFPDPDTPPLTIFSSNDDIVLVQALELADEARRKRQFTDVNRFTLRCMICQKGLTGQAEARDHARETGHTNFGEV
binding [2]: binds

B3: YOD1-C155A (enzyme, UniProt Q8CB27 1-343)
chain: B1 chain with C155A
binding [3]: binds

Other lines, results leading:

binding [1]: binds
Molecule: endogenous STAT3 (primary cardiomyocytes after Ang II stimulation) (from UniProt P52631 1-770)

binding [3]: binds
B2: YOD1-H262A (enzyme, UniProt Q8CB27 1-343)
chain: B1 chain with H262A
